According to doi:10.1101/2021.01.04.425243:
Results are given in words; binding and its absence hold for the method and conditions named. Binding seen in cells or lysates may run through a third protein. For some assays here: A result given as binding can be weak or reduced; the word gives no strength.

Amino acid sequences for entries named in this document (tags omitted). A change or cut given only in a name is not applied to a line headed by its entry. Chains listed by the source or under a name are the forms on record and can include a tag or linker.
FGFR2b (human (endogenous in T47D)) (P21802, form named): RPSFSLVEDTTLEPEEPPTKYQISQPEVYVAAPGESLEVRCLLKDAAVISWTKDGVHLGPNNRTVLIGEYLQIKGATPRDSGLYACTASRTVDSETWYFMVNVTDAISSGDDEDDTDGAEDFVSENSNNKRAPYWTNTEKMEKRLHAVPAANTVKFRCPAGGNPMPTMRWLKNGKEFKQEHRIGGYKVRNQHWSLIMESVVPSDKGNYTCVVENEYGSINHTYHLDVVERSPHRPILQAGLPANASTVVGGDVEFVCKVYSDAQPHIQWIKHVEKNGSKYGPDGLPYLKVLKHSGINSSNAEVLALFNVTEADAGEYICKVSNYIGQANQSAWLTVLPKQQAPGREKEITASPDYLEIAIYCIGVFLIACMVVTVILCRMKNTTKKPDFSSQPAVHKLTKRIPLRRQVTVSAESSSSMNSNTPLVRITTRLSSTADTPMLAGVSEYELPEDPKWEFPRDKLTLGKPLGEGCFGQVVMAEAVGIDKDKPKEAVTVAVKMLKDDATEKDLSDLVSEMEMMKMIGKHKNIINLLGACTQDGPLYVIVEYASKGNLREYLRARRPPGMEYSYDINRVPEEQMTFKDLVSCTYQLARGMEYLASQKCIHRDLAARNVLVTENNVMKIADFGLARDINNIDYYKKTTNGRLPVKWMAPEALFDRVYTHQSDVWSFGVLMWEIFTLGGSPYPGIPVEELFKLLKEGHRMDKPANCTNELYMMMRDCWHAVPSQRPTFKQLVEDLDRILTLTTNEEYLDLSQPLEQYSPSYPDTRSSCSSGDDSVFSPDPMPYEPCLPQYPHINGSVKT

Experiments:
[1] = biological target: FGFR2b (human (endogenous in T47D)) (UniProt P21802); experiment: condition: only in T693A-expressing cells stimulated for 40 min. with FGF10
[2] = biological target: FGFR2b (human (endogenous in T47D)) (UniProt P21802); experiment: co-IP

RCP (from UniProt Q6WKZ4-3)
binding [1]: no binding | binding [2]: binds
